# Experimental data taken from article PMC8351955, “Targeting Mycobacterium tuberculosis response to environmental cues for the development of effective antitubercular drugs” (PLoS Biology, 2021).
# Several values for one entry are separate records, joined by “and”; a condition that tells them apart may be missing. Identical values can stand only once. Further values from the same series stand in other lists.
# Key:
# [1] = system: macrophage phagosomal acidification in BMDMs; test: Phagosomal maturation assay, carboxyfluorescein beads (pH readout); type: cell-based, mouse
# Method: (§1) Carboxyfluorescein (pH readout), DQ-BSA/Alexa Fluor 594 (AF594) (proteolysis readout), and BAC/AF594 (Cl^− readout) beads were generated essentially as previously described, except that 10,10′-Bis[3-carboxylpropyl]-9,9′-biacridinium dinitrate di-NHS ester (BAC-SE) was purchased from emp Biotech LLC. BMDMs were isolated from C57BL/6J mice (The Jackson Laboratory) and maintained as described above. A quantity of 2 × 10^5 macrophages/well were seeded into 96-well clear bottom black plates and utilized in assays 1 to 2 days post-seeding. […] Assay buffer consisted of PBS (pH 7.2), supplemented with 5% FBS, 5 mM dextrose, 1 mM CaCl2, 2.7 mM KCl, and 0.5 mM MgCl2 in the case of assays with the carboxyfluorescein or DQ-BSA/AF594 beads. For assays with the BAC/AF594 beads, assay buffer consisted of PBS (pH 7.2), supplemented with 5% FBS, 5 mM dextrose, 1 mM calcium acetate, 1.35 mM K2SO4, and 0.5 mM MgSO4 [9]. Sensor beads at approximately 2 to 5 beads/macrophage in appropriate assay buffer were finally added, with data acquisition on a Biotek Synergy H1 microplate reader with bottom read signal detection started within 2 to 3 minutes of bead addition. Excitation/emission wavelengths were 450 nm/520 nm and 490 nm/520 nm for carboxyfluorescein, 490 nm/520 nm for DQ-BSA, 365 nm/505 nm for BAC, and 590 nm/617 nm for AF594. Each experiment was run with a total of 3 to 5 replicate wells/condition, with temperature maintained at 37°C throughout the assay. Wells were read every 2 minutes for 2 hours for the carboxyfluorescein bead assays, every 2 minoutes for 4 hours for the DQ-BSA/AF594 bead assays, and every 1 minute for 2 hours for the BAC/AF594 bead assays. Analyses of the results were performed as previously described.
# [2] = system: macrophage phagosomal [Cl−] in BMDMs; test: Phagosomal maturation assay, BAC/AF594 beads (Cl− readout); type: cell-based, mouse
# Method: as §1, with “above.” for “above. A quantity of 2 × 10^5 macrophages/well were seeded into 96-well clear bottom black plates and utilized in assays 1 to 2 days post-seeding.”
smiles,measurement,setting,value
"CCSc1ncc(CN2CCN(c3nc4ccccc4o3)CC2)cn1 [C6, 2-(4-((2-(ethylthio)pyrimidin-5-yl)methyl)piperazin-1-yl)benzo[d]oxazole]","490 nm/450 nm, single replicates (Rep 1-5)",[1]; time 0 minutes,4.897 and 4.891 and 4.958 and 4.914 and 4.628
same,"490 nm/450 nm, single replicates (Rep 1-5)",[1]; time 2 minutes,4.9719 and 4.922 and 4.857 and 4.823 and 5.0783
same,"490 nm/450 nm, single replicates (Rep 1-5)",[1]; time 4 minutes,4.797 and 4.947 and 4.836 and 4.834 and 4.999
same,"490 nm/450 nm, single replicates (Rep 1-5)",[1]; time 46 minutes,2.295 and 2.319 and 2.388 and 2.35 and 2.405
same,"490 nm/450 nm, single replicates (Rep 1-5)",[1]; time 48 minutes,2.309 and 2.305 and 2.374 and 2.321 and 2.44
same,"490 nm/450 nm, single replicates (Rep 1-5)",[1]; time 50 minutes,2.321 and 2.319 and 2.384 and 2.339 and 2.391
same,"490 nm/450 nm, single replicates (Rep 1-5)",[1]; time 52 minutes,2.311 and 2.303 and 2.369 and 2.33 and 2.398
same,"490 nm/450 nm, single replicates (Rep 1-5)",[1]; time 54 minutes,2.297 and 2.314 and 2.361 and 2.345 and 2.395
same,"490 nm/450 nm, single replicates (Rep 1-5)",[1]; time 56 minutes,2.299 and 2.311 and 2.334 and 2.316 and 2.409
same,"490 nm/450 nm, single replicates (Rep 1-5)",[1]; time 58 minutes,2.303 and 2.295 and 2.364 and 2.337 and 2.384
same,"490 nm/450 nm, single replicates (Rep 1-5)",[1]; time 60 minutes,2.31 and 2.297 and 2.374 and 2.3199 and 2.396
same,"490 nm/450 nm, single replicates (Rep 1-5)",[1]; time 62 minutes,2.331 and 2.323 and 2.349 and 2.351 and 2.416
same,"490 nm/450 nm, single replicates (Rep 1-5)",[1]; time 64 minutes,2.302 and 2.332 and 2.372 and 2.3306 and 2.408
same,"490 nm/450 nm, single replicates (Rep 1-5)",[1]; time 66 minutes,2.329 and 2.307 and 2.358 and 2.353 and 2.408
same,"490 nm/450 nm, single replicates (Rep 1-5)",[1]; time 68 minutes,2.333 and 2.305 and 2.3735 and 2.335 and 2.442
same,"490 nm/450 nm, single replicates (Rep 1-5)",[1]; time 70 minutes,2.349 and 2.33 and 2.382 and 2.354 and 2.393
same,"490 nm/450 nm, single replicates (Rep 1-5)",[1]; time 72 minutes,2.3579 and 2.318 and 2.353 and 2.37 and 2.417
same,"490 nm/450 nm, single replicates (Rep 1-5)",[1]; time 74 minutes,2.3657 and 2.326 and 2.384 and 2.368 and 2.447
same,"490 nm/450 nm, single replicates (Rep 1-5)",[1]; time 76 minutes,2.366 and 2.348 and 2.382 and 2.353 and 2.457
same,"490 nm/450 nm, single replicates (Rep 1-5)",[1]; time 78 minutes,2.367 and 2.348 and 2.394 and 2.364 and 2.425
same,"490 nm/450 nm, single replicates (Rep 1-5)",[1]; time 80 minutes,2.379 and 2.348 and 2.401 and 2.392 and 2.4408
same,"490 nm/450 nm, single replicates (Rep 1-5)",[1]; time 82 minutes,2.374 and 2.35 and 2.375 and 2.377 and 2.458
same,"490 nm/450 nm, single replicates (Rep 1-5)",[1]; time 84 minutes,2.361 and 2.339 and 2.3956 and 2.383 and 2.468
same,"490 nm/450 nm, single replicates (Rep 1-5)",[1]; time 86 minutes,2.38 and 2.374 and 2.385 and 2.397 and 2.461
same,"490 nm/450 nm, single replicates (Rep 1-5)",[1]; time 88 minutes,2.401 and 2.377 and 2.389 and 2.416 and 2.489
same,"490 nm/450 nm, single replicates (Rep 1-5)",[1]; time 90 minutes,2.409 and 2.352 and 2.404 and 2.422 and 2.468
same,"490 nm/450 nm, single replicates (Rep 1-5)",[1]; time 92 minutes,2.417 and 2.382 and 2.459 and 2.421 and 2.458
same,"490 nm/450 nm, single replicates (Rep 1-5)",[1]; time 94 minutes,2.404 and 2.373 and 2.435 and 2.426 and 2.49
same,"490 nm/450 nm, single replicates (Rep 1-5)",[1]; time 96 minutes,2.43 and 2.399 and 2.447 and 2.421 and 2.431
same,"490 nm/450 nm, single replicates (Rep 1-5)",[1]; time 98 minutes,2.426 and 2.385 and 2.454 and 2.425 and 2.499
same,"490 nm/450 nm, single replicates (Rep 1-5)",[1]; time 100 minutes,2.449 and 2.407 and 2.439 and 2.433 and 2.509
same,"490 nm/450 nm, single replicates (Rep 1-5)",[1]; time 102 minutes,2.455 and 2.435 and 2.463 and 2.434 and 2.473
same,"490 nm/450 nm, single replicates (Rep 1-5)",[1]; time 104 minutes,2.4482 and 2.403 and 2.464 and 2.4607 and 2.488
same,"490 nm/450 nm, single replicates (Rep 1-5)",[1]; time 106 minutes,2.461 and 2.426 and 2.464 and 2.443 and 2.511
same,"490 nm/450 nm, single replicates (Rep 1-5)",[1]; time 108 minutes,2.458 (2×) and 2.408 and 2.476 and 2.543
same,"490 nm/450 nm, single replicates (Rep 1-5)",[1]; time 110 minutes,2.479 and 2.411 and 2.4971 and 2.462 and 2.502
same,"490 nm/450 nm, single replicates (Rep 1-5)",[1]; time 112 minutes,2.469 and 2.454 and 2.475 and 2.482 and 2.516
same,"490 nm/450 nm, single replicates (Rep 1-5)",[1]; time 114 minutes,2.483 and 2.432 and 2.485 and 2.489 and 2.486
same,"490 nm/450 nm, single replicates (Rep 1-5)",[1]; time 116 minutes,2.488 and 2.437 and 2.494 and 2.4673 and 2.538
same,"490 nm/450 nm, single replicates (Rep 1-5)",[1]; time 118 minutes,2.491 and 2.45 and 2.494 and 2.488 and 2.5451
same,"490 nm/450 nm, single replicates (Rep 1-5)",[1]; time 120 minutes,2.484 and 2.473 and 2.505 and 2.465 and 2.5316
same,"AF594/BAC fluorescence, replicates",[2]; Time 20 minutes,0.6088 and 0.64 and 0.5989 and 0.6216
same,"AF594/BAC fluorescence, replicates",[2]; Time 21 minutes,0.6189 and 0.6273 and 0.6415 and 0.5949 and 0.6136
same,"AF594/BAC fluorescence, replicates",[2]; Time 22 minutes,0.6028 and 0.6109 and 0.6538 and 0.6008 and 0.6285
